Data as given in PubChem BioAssay AID1259425 (University of Nebraska Medical Center, 2018).
Shown is a random part of about 14,000 reagents tested. Further read-outs or replicates are left out here. Reagent sequences are not shown. The record does not give: the time to read-out.

Screen: 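Compare each knockdown with KSR1 silencing using changes in marker transcripts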 (primary screen)
Cell system: HCT116 human colon cancer cells
Reagents: siRNA pool against human genes, 50 nM siRNA
Measurement: 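After 50 nM siRNA pool, branched-DNA assay measures six marker transcripts per well, minus blank, normalised to the geometric mean of two housekeeping transcripts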
Direction: BNIP3L mRNA: higher = more BNIP3L transcript after knockdown; NDRG1 mRNA: higher = more NDRG1 transcript after knockdown

The opening 2 entries, to show the layout:
MARCO — BNIP3L mRNA, set 1 = 0.101; NDRG1 mRNA, set 1 = 0.284
HMCES — BNIP3L mRNA, set 1 = 0.255; NDRG1 mRNA, set 1 = 0.0962

The listing, repeating the preview:
MARCO — BNIP3L mRNA, set 1 = 0.101; NDRG1 mRNA, set 1 = 0.284
HMCES — BNIP3L mRNA, set 1 = 0.255; NDRG1 mRNA, set 1 = 0.0962
NLRP1 — BNIP3L mRNA, set 1 = 0.12; NDRG1 mRNA, set 1 = 0.149
ZC3H7B — BNIP3L mRNA, set 1 = 0.126; NDRG1 mRNA, set 1 = 0.181
ZNF28 — BNIP3L mRNA, set 1 = 0.174; NDRG1 mRNA, set 1 = 0.132
ACTRT1 — BNIP3L mRNA, set 1 = 0.199; NDRG1 mRNA, set 1 = 0.588
TMEM208 — BNIP3L mRNA, set 1 = 0.0971; NDRG1 mRNA, set 1 = 0.405
HOXD11 — BNIP3L mRNA, set 1 = 0.187; NDRG1 mRNA, set 1 = 0.58
ACAD8 — BNIP3L mRNA, set 1 = 0.0891; NDRG1 mRNA, set 1 = 0.477
NOX4 — BNIP3L mRNA, set 1 = 0.09; NDRG1 mRNA, set 1 = 0.319
CTBP1 — BNIP3L mRNA, set 1 = 0.109; NDRG1 mRNA, set 1 = 0.358
ANKFY1 — BNIP3L mRNA, set 1 = 0.142; NDRG1 mRNA, set 1 = 0.962
CHRNG — BNIP3L mRNA, set 1 = 0.0635; NDRG1 mRNA, set 1 = 0.0765
SEL1L3 — BNIP3L mRNA, set 1 = 0.139; NDRG1 mRNA, set 1 = 0.175
SARNP — BNIP3L mRNA, set 1 = 0.126; NDRG1 mRNA, set 1 = 0.468
ACAA2 — BNIP3L mRNA, set 1 = 0.0699; NDRG1 mRNA, set 1 = 0.0911
RBM38 — BNIP3L mRNA, set 1 = 0.0434; NDRG1 mRNA, set 1 = 0.0414
KRTAP17-1 — BNIP3L mRNA, set 1 = 0.346; NDRG1 mRNA, set 1 = 0.552
UBL5 — BNIP3L mRNA, set 1 = 0.195; NDRG1 mRNA, set 1 = 0.214
